The text below walks through data of article PMC2935449.

What all share (assay): affinity purification with mass spectrometry; bait endogenously TAP-tagged at its C-terminus, tandem affinity purification from native S. pombe lysate, co-purified proteins identified by 2D LC-MS/MS; duplicates, only proteins found in both replicates
One assay has as its target T1, Otu1-TAP (S. pombe) (UniProt O13974).
T1 sequence: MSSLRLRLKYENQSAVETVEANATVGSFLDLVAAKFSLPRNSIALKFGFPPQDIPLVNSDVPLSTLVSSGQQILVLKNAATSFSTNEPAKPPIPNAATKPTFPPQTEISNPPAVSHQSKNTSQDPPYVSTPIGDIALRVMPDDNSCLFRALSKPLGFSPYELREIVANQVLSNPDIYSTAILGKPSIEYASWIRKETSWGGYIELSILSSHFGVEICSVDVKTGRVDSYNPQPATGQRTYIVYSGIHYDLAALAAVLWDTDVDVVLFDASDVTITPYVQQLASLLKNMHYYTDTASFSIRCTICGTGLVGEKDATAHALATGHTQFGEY

For a further assay, the target named is T2, Ubp3-TAP (S. pombe) (UniProt O94269).
T2 sequence: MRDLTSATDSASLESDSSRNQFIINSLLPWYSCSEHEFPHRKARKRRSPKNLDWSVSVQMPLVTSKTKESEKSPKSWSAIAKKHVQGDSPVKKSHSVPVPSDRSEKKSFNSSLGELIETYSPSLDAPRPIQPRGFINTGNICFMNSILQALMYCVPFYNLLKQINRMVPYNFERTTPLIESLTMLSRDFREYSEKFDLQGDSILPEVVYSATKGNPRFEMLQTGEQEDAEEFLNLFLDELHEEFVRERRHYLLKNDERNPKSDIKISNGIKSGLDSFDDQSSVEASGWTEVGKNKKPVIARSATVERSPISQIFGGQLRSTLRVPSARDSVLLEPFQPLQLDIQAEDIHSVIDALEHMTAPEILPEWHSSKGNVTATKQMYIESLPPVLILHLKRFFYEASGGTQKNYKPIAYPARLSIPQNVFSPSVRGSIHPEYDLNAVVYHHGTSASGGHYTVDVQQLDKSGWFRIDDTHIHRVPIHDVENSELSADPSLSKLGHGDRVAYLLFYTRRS

In a further assay the target is T3, Ubp2-TAP (S. pombe) (UniProt Q9P3U0).
T3 sequence: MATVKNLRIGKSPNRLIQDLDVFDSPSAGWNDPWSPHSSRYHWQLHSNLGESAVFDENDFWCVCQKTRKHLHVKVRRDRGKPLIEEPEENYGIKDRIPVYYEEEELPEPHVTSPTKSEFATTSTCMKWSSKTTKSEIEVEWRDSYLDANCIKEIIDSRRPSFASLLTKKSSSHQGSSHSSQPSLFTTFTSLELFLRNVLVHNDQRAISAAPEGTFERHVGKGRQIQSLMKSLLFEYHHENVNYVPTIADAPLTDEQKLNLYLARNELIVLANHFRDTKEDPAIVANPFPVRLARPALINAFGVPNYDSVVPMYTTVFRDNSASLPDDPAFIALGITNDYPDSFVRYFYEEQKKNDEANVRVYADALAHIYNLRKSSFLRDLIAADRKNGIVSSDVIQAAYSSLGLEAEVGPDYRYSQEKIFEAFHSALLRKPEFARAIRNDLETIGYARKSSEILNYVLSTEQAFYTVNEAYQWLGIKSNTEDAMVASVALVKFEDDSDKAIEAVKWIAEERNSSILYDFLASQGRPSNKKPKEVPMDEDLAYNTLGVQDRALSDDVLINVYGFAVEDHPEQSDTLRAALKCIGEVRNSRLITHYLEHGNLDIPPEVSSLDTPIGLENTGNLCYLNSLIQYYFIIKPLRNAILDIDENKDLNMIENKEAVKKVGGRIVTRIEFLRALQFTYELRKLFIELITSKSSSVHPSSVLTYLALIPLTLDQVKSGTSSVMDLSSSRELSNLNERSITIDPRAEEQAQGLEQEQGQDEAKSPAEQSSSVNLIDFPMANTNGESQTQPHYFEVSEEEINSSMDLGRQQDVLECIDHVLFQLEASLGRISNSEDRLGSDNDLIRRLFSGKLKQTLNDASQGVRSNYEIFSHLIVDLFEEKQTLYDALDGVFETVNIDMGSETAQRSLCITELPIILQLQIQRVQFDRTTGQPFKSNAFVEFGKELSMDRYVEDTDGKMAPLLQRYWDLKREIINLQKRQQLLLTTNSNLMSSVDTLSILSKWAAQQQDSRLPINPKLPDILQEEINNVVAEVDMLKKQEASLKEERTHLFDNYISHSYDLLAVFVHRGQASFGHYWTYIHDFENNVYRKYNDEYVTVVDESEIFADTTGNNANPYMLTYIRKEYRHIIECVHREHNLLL

Another assay addresses T4, Ubp4-TAP (S. pombe) (UniProt O60139).
T4 sequence: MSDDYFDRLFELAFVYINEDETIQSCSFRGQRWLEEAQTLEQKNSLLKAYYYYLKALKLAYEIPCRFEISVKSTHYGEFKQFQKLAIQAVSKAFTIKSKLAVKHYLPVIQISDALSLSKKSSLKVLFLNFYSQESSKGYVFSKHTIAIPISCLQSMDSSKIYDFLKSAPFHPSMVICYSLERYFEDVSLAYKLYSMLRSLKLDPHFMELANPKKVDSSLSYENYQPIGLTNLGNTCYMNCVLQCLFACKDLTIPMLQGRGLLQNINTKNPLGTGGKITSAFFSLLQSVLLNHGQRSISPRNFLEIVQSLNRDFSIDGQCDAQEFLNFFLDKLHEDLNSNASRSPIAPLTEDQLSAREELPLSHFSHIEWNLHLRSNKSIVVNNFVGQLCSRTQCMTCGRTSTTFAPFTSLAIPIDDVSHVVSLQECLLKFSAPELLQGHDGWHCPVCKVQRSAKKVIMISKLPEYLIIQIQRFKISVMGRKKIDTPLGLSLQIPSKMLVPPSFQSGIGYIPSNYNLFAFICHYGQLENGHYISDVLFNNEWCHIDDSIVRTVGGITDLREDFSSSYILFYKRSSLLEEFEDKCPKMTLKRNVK

Results are given in words; binding and its absence hold for the method and conditions named. In cells and extracts the contact can be indirect. Here binding means that the protein was enriched with, or labelled near, the bait; the list need not be complete.

On to Cdc48 (from UniProt Q9P3A7 1-809), for which the binding result in the assay with Otu1-TAP (S. pombe) is reported as “binds”.

B1: Nxt3 (protein, UniProt O94260 1-434)
chain: MTAENATLLEPVLGKDEIGWMFVQEYYTYLNKEPNRLHCFYTKKSTLIHGDEGESISLCHGQQEIHNKILDLDFQNCKVLISNVDSLASSNGGIVIQVLGEMSNKGKLSRKFAQTFFLAEQPNGYFVLNDIFRFLREDVEEEEESPDAVEKEKKDVASEPYVNGVQSQEHLPSAKEEGHYQDPAATENNFATAALISNETDSLNQATLAVPEEPVIQVTEASVPSFVSQQENQLQDEALTSNSKNADAIGASDANVATAPKSWADLIARNHPDVKSQASVSSTASTTGQTVKGVNADQTQQPTAPYTQSNELLETSVFVKNIPPETSDVSLKSAMSIFGPVKAIEFARRKGTAYVDFVNHECVQLALNKKTLQINNATLNIEERRRLFSGKFNKSGDKKSNDNYNGMKRNFRKGNRGAFDGRSKEVTTSKKQNN
For the molecule B1, the binding result with Ubp3-TAP (S. pombe) was “binds”.

B2: Ucp6 (protein, UniProt Q10187 1-612)
chain: MEDLDTKIKTLKNMGVSESDAKDSLERCGYDVESAAEFIFSGQLEKSRLVPIMSSTSIASSLPSYQDTFFLPSPRKRRRLPGRIGTVLKPSALFPAIAPFLFVVFEIPVALNTFVHATCKGLLFAEDNASFHRPFTDVSAHLSSSSLSKYNHHSNHRLASPGWWYGEDSCISQSLDPRSVMQVQTIRAFEFLFSSHRLYLDTVHITAALSQVLAGLGNTNTSMSDGDCIAAFLSSYFSPPNAEFDSTFCSTLSSLTNSEKPTYIFNFKPNSTPDLRLSIESCLDLLLHPPSSAQKNWSWIKHVGKVFCCSLPGNNASGTPRFLLTPKIDLSKCIIENRDEMLRRYQLETVYRKTLLEWEDLYKRLTGVTLTDKDIGELLTDGQQFLEKRNPALSSHLQLLKETLQTKISTLISNTNATQHKLSTLYRGMQNKCTRRLLAVIIEPSIIYICLKNSAVQSNRNVSPSANHNEQWYLVRFTTSATISQDSPPCIVEPVTFEEVDLEFEKHISYHNRLLIYVDDDCEASTRTVIPTSVKNFIAEDNEYFDDELAGIIHSPTVSTRSSRSSDVSEYDLEDQGGLQLTVPHINTDVQCHRSRNSACEFPESMHVEHSG
For B2, the binding result with Ubp2-TAP (S. pombe) is listed as “binds”.

B3: Sfp47 (SH3 domain Ubp4 partner of 47 kDa) (protein, UniProt O14259 1-415)
chain: MNSFSSNEYSTEISTEALNNWQQLVEQRISLELEYAAKLAKLTKSIKAIKQCAPLNDLTKQVCVELMQCNKKHLEASRYFQTHVKEFMKEYVDRENKFSNETISKSSAAALMTSMENFILFTNPVYHNKLQVPSKSDMEIANSLKITQPAEKNSGTANPISAYSLEHAELDERNNQLSEALSMLRLSPFVNNYYPSYQNRKDGKSLMENRGVVLSVDTVTSPISQSPKKLTPTTSPINSTSLSFVDAKKPGSKWPSQYDFPKKTKSTEIPFKTLPSLNINNERELTKHKLPIVKPKLAVFPSNQATASTLQLAPPPVQAIPTLRNPVNLDDKKESLLKYYATHPTITPDGFPIFAYVRALYAYKATLPSEIDLNVDDTLVVLNRQKDGWWKGLVVSPTVGRIGLFPSNYIEELEY
As to B3, the binding entry with Ubp4-TAP (S. pombe) is listed as “binds”.
